The record followed here is the supplement of paper PMC6411743.

Protein sequences, listed by entry. Tags and fused reporters are not part of them. Lines headed by an entry give the natural chain unless they say otherwise; changes in a name come on top.
UniProt P21796, whole entry: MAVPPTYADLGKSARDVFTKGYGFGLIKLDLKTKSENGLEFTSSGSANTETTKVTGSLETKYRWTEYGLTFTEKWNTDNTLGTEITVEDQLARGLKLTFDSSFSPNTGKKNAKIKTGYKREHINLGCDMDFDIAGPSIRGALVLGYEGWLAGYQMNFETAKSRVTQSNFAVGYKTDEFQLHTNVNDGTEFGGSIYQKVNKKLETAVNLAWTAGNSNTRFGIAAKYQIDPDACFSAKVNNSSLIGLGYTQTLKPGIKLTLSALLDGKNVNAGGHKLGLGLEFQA
UniProt P21281, whole entry: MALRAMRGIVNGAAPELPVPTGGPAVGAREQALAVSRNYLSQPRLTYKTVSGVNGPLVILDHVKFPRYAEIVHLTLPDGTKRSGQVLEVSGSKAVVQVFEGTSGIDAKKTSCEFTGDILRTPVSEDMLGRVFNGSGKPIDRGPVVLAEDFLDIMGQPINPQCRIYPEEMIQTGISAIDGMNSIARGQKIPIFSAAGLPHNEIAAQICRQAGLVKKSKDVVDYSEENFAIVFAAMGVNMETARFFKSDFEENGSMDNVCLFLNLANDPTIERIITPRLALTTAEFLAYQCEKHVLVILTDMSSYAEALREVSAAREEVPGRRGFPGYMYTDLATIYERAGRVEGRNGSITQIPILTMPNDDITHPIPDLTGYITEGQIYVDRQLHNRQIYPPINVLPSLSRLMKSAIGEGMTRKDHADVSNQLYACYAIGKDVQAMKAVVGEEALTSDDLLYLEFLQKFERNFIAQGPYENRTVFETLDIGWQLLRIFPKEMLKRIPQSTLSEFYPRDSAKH
UniProt P14621: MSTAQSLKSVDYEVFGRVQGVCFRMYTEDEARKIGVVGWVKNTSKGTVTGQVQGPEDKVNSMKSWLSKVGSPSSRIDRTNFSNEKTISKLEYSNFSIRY
UniProt P15056, whole entry: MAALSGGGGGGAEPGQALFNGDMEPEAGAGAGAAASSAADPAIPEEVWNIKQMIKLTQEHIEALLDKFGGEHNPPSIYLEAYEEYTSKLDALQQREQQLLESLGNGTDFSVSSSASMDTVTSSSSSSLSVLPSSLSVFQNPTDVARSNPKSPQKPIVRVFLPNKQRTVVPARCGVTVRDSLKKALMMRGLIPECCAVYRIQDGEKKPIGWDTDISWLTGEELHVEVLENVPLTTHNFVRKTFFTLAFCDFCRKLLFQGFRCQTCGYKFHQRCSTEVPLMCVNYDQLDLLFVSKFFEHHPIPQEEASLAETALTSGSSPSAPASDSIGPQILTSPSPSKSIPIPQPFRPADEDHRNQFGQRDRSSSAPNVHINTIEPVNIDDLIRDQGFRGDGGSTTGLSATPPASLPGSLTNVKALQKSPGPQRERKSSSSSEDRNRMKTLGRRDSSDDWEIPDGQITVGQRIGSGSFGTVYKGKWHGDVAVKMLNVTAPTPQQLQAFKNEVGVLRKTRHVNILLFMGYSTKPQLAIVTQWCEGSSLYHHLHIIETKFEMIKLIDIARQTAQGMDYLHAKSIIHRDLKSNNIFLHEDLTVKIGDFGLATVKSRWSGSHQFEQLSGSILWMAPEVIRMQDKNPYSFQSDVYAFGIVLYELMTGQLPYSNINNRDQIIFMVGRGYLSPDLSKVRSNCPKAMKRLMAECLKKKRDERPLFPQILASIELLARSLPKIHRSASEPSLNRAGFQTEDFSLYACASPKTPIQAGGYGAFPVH
UniProt P21953: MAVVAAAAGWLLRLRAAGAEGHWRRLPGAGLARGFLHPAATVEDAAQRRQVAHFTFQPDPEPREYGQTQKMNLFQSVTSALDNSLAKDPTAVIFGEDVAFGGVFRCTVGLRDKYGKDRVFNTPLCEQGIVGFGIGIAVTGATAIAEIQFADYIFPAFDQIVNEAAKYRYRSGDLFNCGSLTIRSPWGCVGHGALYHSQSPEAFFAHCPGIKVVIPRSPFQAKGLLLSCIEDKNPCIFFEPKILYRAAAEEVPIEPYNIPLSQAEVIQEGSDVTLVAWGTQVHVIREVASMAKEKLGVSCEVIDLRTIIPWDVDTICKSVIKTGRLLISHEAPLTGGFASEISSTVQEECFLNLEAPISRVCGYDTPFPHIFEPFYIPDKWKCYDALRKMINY

Compound in this assay: Nc1nc2c(ncn2[C@@H]2O[C@H](COP(=O)(O)OP(=O)(O)OP(=O)(O)O)[C@@H](O)[C@H]2O)c(=O)[nH]1 [guanosine triphosphate]
Kind of assay: NP40-soluble protein abundance relative to vehicle (solubility fold change) (ratio); higher = more soluble protein in presence of GTP. The protocol: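 Solubility proteome profiling in Jurkat crude lysate. Lysate was treated with Mg-GTP (0.1-10 mM) for 10 min at room temperature and 3 min at 37 °C, then solubilised with 0.8% NP40 and benzonase, followed by ultracentrifugation. Proteins were quantified by TMT10 LC-MS/MS; the value is the NP40-soluble abundance relative to the NP40-processed vehicle, from 3 independent experiments.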

± gives the standard deviation of the averaged measurements. The list shows a part of the results.

Turning to VDAC1 (UniProt P21796), the NP40-soluble protein abundance (concentration: 0.1mM) is 0.936 ± 0.022; the NP40-soluble protein abundance (concentration: 0.5mM) was found to be 0.961 ± 0.028; the NP40-soluble protein abundance (concentration: 1mM) stood at 0.903 ± 0.027; the NP40-soluble protein abundance (concentration: 2mM) was 0.873 ± 0.021; the NP40-soluble protein abundance (concentration: 4mM) stood at 0.869 ± 0.032; the NP40-soluble protein abundance (concentration: 6mM) was 0.875 ± 0.025. Besides, the NP40-soluble protein abundance reads like this: (concentration: 8mM) 0.856 ± 0.042; (concentration: 10mM) 0.82 ± 0.047.
Turning to ATP6V1B2 (UniProt P21281), the NP40-soluble protein abundance reads like this: (concentration: 0.1mM) 1 ± 0.04; (concentration: 0.5mM) 1.01 ± 0.04; (concentration: 1mM) 1.01 ± 0.056; (concentration: 2mM) 1 ± 0.043; (concentration: 4mM) 1.02 ± 0.035; (concentration: 6mM) 0.995 ± 0.051. Further, the NP40-soluble protein abundance is, setting by setting: (concentration: 8mM) 1 ± 0.057; (concentration: 10mM) 0.983 ± 0.056.
For UniProt P14621 and related entries, the NP40-soluble protein abundance runs as follows: (concentration: 0.1mM) 1.03 ± 0.15; (concentration: 0.5mM) 1 ± 0.11; (concentration: 1mM) 1.08 ± 0.21; (concentration: 2mM) 0.996 ± 0.19; (concentration: 4mM) 0.991 ± 0.24; (concentration: 6mM) 0.965 ± 0.22. For the same target, the NP40-soluble protein abundance worked out at 0.989 ± 0.19 (concentration: 8mM) and 1.02 ± 0.15 (concentration: 10mM).
For UniProt P15056 and related entries, the NP40-soluble protein abundance by setting is: (concentration: 0.1mM) 1.03 ± 0.048; (concentration: 0.5mM) 1.04 ± 0.041; (concentration: 1mM) 1.05 ± 0.04; (concentration: 2mM) 0.995 ± 0.065; (concentration: 4mM) 1 ± 0.077; (concentration: 6mM) 1.01 ± 0.016. Moreover, the NP40-soluble protein abundance amounted to 1.05 ± 0.084 (concentration: 8mM) and 1.07 ± 0.049 (concentration: 10mM).
As for BCKDHB (UniProt P21953), the NP40-soluble protein abundance reads like this: (concentration: 0.1mM) 1.03 ± 0.048; (concentration: 0.5mM) 1.07 ± 0.093; (concentration: 1mM) 1.06 ± 0.14; (concentration: 2mM) 1.07 ± 0.15; (concentration: 4mM) 1.07 ± 0.15; (concentration: 6mM) 1.1 ± 0.21. Besides, the NP40-soluble protein abundance turned out to be 1.04 ± 0.11 (concentration: 8mM) and 1 ± 0.14 (concentration: 10mM).
